Experimental data: PubChem BioAssay AID1259308 (NCATS, 2017)
Purpose: 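Candidate targets for better recombinant protein yield in mammalian cells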 (primary screen). Cells: human HEK293 embryonic kidney cells stably expressing firefly luciferase (HEK-CMV-Luc2-Hygro). Reagent: single siRNA against human genes, 0.8 pmol siRNA per well. Duration: 72 h. Detection: 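Luciferase light (ONE-Glo) measured on one replicate plate set and viability (CellTiter-Glo) on the other, scaled to a negative control siRNA, with robust z-scores and luciferase per cell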. Reading the numbers: total luciferase, z-score and total luciferase, % of control: higher = more reporter protein produced; luciferase per cell, z-score: higher = more reporter output per viable cell; viable cells, % of control: higher = more viable cells. Rule for the call: 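An siRNA counts as active if its total luciferase robust z-score exceeds 3; genes with two or more such siRNAs out of three were retested with fresh siRNAs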. Meaning of the calls: active = raised luciferase; inactive = no rise.
Shown is a random part of about 59,000 deposited reagents. Over the whole deposit, about 1,510 (2.6%) are marked active. 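Calls use total luciferase alone and ignore viability, so some active siRNAs may act by altering cell number.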 Entries without a mark were called inactive. The numbers tell different reagents against one gene apart.

gene symbol | reagent | total luciferase, z-score | total luciferase, % of control | luciferase per cell, z-score | viable cells, % of control
LRRTM4 | 1 | 0.211 | 86.1 | -0.643 | 114
LRRTM4 | 2 | -1.16 | 58.9 | -0.498 | 75
LRRTM4 | 3 | -0.422 | 73.5 | 0.0278 | 81.5
NAT10 | 1 | -0.316 | 75.6 | 0.0485 | 83.4
NAT10 | 2 | -0.354 | 74.9 | -1.02 | 109
NAT10 | 3 | -0.197 | 78 | -0.184 | 91.5
RPL9P25 | 1 | -2.97 | 22.8 | -2.43 | 48.4
RPL9P25 | 2 | 1.92 | 120 | 1.95 | 80.4
RPL9P25 | 3 | -0.387 | 74.2 | -0.42 | 92.6
FDCSP | 1 | -0.0166 | 81.6 | 0.481 | 80.3
FDCSP | 2 | -0.686 | 68.3 | -0.615 | 89.7
FDCSP | 3 | -0.683 | 68.3 | -0.766 | 93.4
PTGER2 | 1 | 0.367 | 89.2 | -0.17 | 104
PTGER2 | 2 | 1.32 | 108 | 0.865 | 96.2
PTGER2 | 3 | 1 | 102 | 1.27 | 81.5
PDS5B | 1 | 0.492 | 91.7 | 0.468 | 90.6
PDS5B | 2 | -0.16 | 78.7 | -0.557 | 102
PDS5B | 3 | -0.0743 | 80.4 | 0.197 | 85.3
AGPAT3 | 1 | -1.64 | 49.3 | -0.843 | 68.8
AGPAT3 | 2 | -1.41 | 53.9 | -0.843 | 75.2
AGPAT3 | 3 | 1.06 | 103 | 1.42 | 79.2
CD28 | 1 | 0.743 | 96.7 | 0.462 | 95.7
CD28 | 2 | -0.401 | 73.9 | 0.408 | 74.2
CD28 | 3 | -1.37 | 54.6 | -1.54 | 91.5
RAB1B | 1 | 1.05 | 103 | 0.665 | 96.4
RAB1B | 2 | 0.234 | 86.5 | 0.598 | 82.6
RAB1B | 3 | 6.75 (active) | 216 | 4.38 | 76.3
IBTK | 1 | -0.447 | 73 | -0.0711 | 83.1
IBTK | 2 | -0.188 | 78.1 | -0.553 | 101
IBTK | 3 | -0.712 | 67.7 | -1.4 | 109
GALNTL5 | 1 | 1.36 | 109 | 0.87 | 96.7
GALNTL5 | 2 | 0.0818 | 83.5 | -0.165 | 97.5
GALNTL5 | 3 | 0.162 | 85.1 | -0.341 | 104
TTC9B | 1 | -0.392 | 74.1 | -1.08 | 110
TTC9B | 2 | 0.569 | 93.2 | 0.373 | 94.4
TTC9B | 3 | 1.64 | 114 | 2.07 | 74.2
PLXDC2 | 1 | -1.95 | 43 | -1.31 | 67.9
PLXDC2 | 2 | -0.814 | 65.7 | -0.556 | 85
PLXDC2 | 3 | 0.1 | 83.9 | 1.16 | 69.1
TMED10 | 1 | -0.0411 | 81.1 | 0.339 | 82.9
TMED10 | 2 | 1.85 | 119 | 1.94 | 79.6
TMED10 | 3 | -0.504 | 71.9 | -0.559 | 93
STOML2 | 1 | -0.755 | 66.9 | -0.923 | 95.3
STOML2 | 2 | -0.976 | 62.5 | -1.02 | 91.3
STOML2 | 3 | 1.39 | 110 | 0.472 | 108
CXorf58 | 1 | 0.268 | 87.2 | -0.0372 | 98.4
CXorf58 | 2 | -0.0823 | 80.2 | 1.21 | 65.2
CXorf58 | 3 | 0.273 | 87.3 | 0.109 | 94.8
NARS1 | 1 | -2.18 | 38.6 | -1.65 | 66.6
NARS1 | 2 | -1.72 | 47.7 | -0.709 | 64.2
NARS1 | 3 | -2.71 | 28 | -2 | 52.9
TLCD1 | 1 | 0.277 | 87.4 | -0.129 | 101
TLCD1 | 2 | -0.805 | 65.9 | -0.428 | 82.4
TLCD1 | 3 | 0.23 | 86.5 | 0.209 | 91.4
ANXA9 | 1 | 0.33 | 88.5 | -0.289 | 107
ANXA9 | 2 | 0.917 | 100 | 0.492 | 98.3
ANXA9 | 3 | 0.882 | 99.4 | 1.27 | 79.5

Laid out differently: entries from further up.
gene symbol	reagent	total luciferase, z-score	total luciferase, % of control	luciferase per cell, z-score	viable cells, % of control
RAB1B	2	0.234	86.5	0.598	82.6
RAB1B	3	6.75 (active)	216	4.38	76.3
IBTK	1	-0.447	73	-0.0711	83.1
IBTK	2	-0.188	78.1	-0.553	101
IBTK	3	-0.712	67.7	-1.4	109
GALNTL5	1	1.36	109	0.87	96.7
GALNTL5	2	0.0818	83.5	-0.165	97.5
GALNTL5	3	0.162	85.1	-0.341	104
TTC9B	1	-0.392	74.1	-1.08	110
